# Source: patent US20220249622A1 (TCI CO., LTD., priority 2021, published 2022)
# Where a sequence shows no end group, the ends are not given.
# Assay: general procedure: Fmoc solid-phase peptide synthesis
# Settings: whole synthesis, 220 nm
sequence,measurement,value
NGTGPQNH (listed as Pangasius bocourti),final HPLC purity,95% or above
